Source: article PMC9484707
Results are given in words; binding and its absence hold for the method and conditions named. In cells and extracts the contact can be indirect. Some binding calls cover weakened binding; strength is not graded here.

Columns and labels:
[1] = target: T1, tumor necrosis factor receptor associated factor (TRAF) 3, overexpressed in HEK293T cells (UniProt Q60803); assay: co-IP; HEK293T cells transfected with the indicated plasmids (PEI, 48 h); lysates incubated with the indicated gels at 4 °C overnight, washed three times with cell lysis buffer; immunoblot
T1 sequence: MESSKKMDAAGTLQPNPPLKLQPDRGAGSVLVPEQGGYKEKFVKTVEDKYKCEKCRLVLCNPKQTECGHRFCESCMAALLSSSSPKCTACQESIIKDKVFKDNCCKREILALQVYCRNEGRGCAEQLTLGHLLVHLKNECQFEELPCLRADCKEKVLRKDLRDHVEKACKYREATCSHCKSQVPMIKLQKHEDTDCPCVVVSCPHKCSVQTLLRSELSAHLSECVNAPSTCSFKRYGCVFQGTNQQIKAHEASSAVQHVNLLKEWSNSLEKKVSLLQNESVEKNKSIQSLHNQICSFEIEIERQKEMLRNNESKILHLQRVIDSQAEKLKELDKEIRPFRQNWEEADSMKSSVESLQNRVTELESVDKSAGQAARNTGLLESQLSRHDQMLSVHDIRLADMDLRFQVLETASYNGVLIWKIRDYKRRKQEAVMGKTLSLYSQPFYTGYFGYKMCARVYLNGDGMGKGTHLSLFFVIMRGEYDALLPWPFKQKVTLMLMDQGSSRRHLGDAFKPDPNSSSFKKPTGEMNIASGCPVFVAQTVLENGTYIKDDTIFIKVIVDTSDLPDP

[2] = target: T2, TRAF3, endogenous in MH-S alveolar macrophages (mouse (endogenous in MH-S)) (UniProt Q60803); assay: co-IP; MH-S macrophages infected with S. aureus strains (MOI = 25) for the indicated times; lysates incubated with the indicated gels at 4 °C overnight; immunoblot
T2 sequence: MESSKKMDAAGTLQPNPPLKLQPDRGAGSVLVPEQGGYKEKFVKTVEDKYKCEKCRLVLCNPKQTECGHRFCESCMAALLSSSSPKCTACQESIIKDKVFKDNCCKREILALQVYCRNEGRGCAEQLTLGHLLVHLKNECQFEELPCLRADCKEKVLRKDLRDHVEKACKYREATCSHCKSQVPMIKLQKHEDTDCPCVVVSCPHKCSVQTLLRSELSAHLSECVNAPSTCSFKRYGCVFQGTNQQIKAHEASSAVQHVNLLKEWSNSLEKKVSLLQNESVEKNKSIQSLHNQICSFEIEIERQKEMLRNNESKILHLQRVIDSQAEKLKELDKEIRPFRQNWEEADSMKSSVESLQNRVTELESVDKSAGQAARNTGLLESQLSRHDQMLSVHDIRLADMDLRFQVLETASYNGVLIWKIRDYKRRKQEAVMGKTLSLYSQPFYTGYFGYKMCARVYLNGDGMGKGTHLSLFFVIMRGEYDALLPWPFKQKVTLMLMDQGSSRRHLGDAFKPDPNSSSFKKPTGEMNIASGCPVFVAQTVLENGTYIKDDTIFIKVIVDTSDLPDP

B1: TRAF2, overexpressed in HEK293T cells (protein, UniProt P39429 1-501)
chain: MAAASVTSPGSLELLQPGFSKTLLGTRLEAKYLCSACKNILRRPFQAQCGHRYCSFCLTSILSSGPQNCAACVYEGLYEEGISILESSSAFPDNAARREVESLPAVCPNDGCTWKGTLKEYESCHEGLCPFLLTECPACKGLVRLSEKEHHTEQECPKRSLSCQHCRAPCSHVDLEVHYEVCPKFPLTCDGCGKKKIPRETFQDHVRACSKCRVLCRFHTVGCSEMVETENLQDHELQRLREHLALLLSSFLEAQASPGTLNQVGPELLQRCQILEQKIATFENIVCVLNREVERVAVTAEACSRQHRLDQDKIEALSNKVQQLERSIGLKDLAMADLEQKVSELEVSTYDGVFIWKISDFTRKRQEAVAGRTPAIFSPAFYTSRYGYKMCLRVYLNGDGTGRGTHLSLFFVVMKGPNDALLQWPFNQKVTLMLLDHNNREHVIDAFRPDVTSSSFQRPVSDMNIASGCPLFCPVSKMEAKNSYVRDDAIFIKAIVDLTGL
binding [1]: binds

B2: TRAF2, endogenous in MH-S alveolar macrophages (protein, UniProt P39429 1-501)
chain: MAAASVTSPGSLELLQPGFSKTLLGTRLEAKYLCSACKNILRRPFQAQCGHRYCSFCLTSILSSGPQNCAACVYEGLYEEGISILESSSAFPDNAARREVESLPAVCPNDGCTWKGTLKEYESCHEGLCPFLLTECPACKGLVRLSEKEHHTEQECPKRSLSCQHCRAPCSHVDLEVHYEVCPKFPLTCDGCGKKKIPRETFQDHVRACSKCRVLCRFHTVGCSEMVETENLQDHELQRLREHLALLLSSFLEAQASPGTLNQVGPELLQRCQILEQKIATFENIVCVLNREVERVAVTAEACSRQHRLDQDKIEALSNKVQQLERSIGLKDLAMADLEQKVSELEVSTYDGVFIWKISDFTRKRQEAVAGRTPAIFSPAFYTSRYGYKMCLRVYLNGDGTGRGTHLSLFFVVMKGPNDALLQWPFNQKVTLMLLDHNNREHVIDAFRPDVTSSSFQRPVSDMNIASGCPLFCPVSKMEAKNSYVRDDAIFIKAIVDLTGL
binding [2]: binds
